Article PMC8016872
Results are given in words; binding and its absence hold for the method and conditions named. Binding seen in cells or lysates may run through a third protein. Some results given as binding are weak or reduced against the parent protein; the word gives no strength.

The chains behind the UniProt entries cited, without tags or fusion partners.
UniProt P17844: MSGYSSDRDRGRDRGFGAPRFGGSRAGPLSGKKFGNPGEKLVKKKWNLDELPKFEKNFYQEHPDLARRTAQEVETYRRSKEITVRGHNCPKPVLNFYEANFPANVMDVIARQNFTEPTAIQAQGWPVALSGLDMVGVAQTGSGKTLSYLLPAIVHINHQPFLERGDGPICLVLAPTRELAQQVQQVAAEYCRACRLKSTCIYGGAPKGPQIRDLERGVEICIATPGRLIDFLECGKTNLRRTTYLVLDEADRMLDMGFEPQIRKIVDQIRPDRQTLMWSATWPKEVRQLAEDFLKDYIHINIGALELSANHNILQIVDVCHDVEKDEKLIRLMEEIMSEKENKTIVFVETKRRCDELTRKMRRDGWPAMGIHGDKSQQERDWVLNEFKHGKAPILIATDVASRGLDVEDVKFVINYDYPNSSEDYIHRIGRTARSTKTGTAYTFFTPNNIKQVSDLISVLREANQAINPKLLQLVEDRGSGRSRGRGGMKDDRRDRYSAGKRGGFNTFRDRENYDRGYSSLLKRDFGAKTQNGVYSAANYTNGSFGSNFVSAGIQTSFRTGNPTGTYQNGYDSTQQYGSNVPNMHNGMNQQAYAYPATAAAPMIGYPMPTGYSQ
UniProt Q08211: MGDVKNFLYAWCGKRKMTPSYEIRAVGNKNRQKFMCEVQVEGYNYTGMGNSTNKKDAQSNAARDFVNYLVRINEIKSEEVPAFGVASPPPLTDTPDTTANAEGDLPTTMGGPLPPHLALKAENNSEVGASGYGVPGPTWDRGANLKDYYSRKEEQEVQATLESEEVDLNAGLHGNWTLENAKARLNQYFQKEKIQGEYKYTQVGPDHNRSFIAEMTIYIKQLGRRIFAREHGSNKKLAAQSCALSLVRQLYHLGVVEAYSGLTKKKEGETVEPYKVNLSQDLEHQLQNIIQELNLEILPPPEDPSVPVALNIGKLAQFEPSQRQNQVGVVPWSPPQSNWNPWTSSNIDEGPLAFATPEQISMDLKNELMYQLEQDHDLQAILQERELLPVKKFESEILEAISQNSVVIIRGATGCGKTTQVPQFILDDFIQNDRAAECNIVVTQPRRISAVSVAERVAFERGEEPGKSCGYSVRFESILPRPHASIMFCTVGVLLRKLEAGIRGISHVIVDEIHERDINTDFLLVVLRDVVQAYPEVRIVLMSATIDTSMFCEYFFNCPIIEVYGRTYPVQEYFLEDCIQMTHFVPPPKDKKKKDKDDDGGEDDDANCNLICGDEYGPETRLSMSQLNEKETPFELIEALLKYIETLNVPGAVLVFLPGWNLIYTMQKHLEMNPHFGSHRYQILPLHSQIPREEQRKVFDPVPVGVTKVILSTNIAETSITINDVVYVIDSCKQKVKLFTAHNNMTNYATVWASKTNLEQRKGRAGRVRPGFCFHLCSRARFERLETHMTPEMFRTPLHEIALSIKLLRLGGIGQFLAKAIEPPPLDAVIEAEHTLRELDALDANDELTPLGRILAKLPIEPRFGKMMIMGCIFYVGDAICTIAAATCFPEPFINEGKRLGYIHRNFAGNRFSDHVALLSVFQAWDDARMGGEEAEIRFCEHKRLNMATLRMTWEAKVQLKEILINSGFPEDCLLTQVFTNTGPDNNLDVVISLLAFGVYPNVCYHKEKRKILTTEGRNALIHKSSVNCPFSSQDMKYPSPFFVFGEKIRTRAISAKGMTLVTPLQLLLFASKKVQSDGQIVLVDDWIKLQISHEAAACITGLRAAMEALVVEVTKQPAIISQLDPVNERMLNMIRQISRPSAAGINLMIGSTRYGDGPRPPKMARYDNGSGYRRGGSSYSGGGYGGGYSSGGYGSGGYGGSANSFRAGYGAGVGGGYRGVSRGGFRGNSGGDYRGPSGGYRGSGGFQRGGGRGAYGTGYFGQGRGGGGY
UniProt P06748: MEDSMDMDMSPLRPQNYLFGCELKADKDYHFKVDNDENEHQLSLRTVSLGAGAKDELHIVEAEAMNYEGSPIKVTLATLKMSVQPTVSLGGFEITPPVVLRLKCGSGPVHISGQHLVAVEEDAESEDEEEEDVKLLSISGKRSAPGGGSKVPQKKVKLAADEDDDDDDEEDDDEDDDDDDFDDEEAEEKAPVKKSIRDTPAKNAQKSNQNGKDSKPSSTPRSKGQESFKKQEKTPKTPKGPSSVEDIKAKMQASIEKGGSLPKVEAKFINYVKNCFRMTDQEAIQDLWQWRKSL
UniProt P38936: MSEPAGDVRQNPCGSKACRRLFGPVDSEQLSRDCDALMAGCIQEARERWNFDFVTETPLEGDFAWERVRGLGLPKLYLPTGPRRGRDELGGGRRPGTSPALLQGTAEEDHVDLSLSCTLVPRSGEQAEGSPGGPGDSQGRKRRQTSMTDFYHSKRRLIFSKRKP

Legend:
[1] = target: DDX5 (p68) (human (endogenous in H1299 or A549)) (UniProt P17844); experiment: co-IP; co-IP with RNase A treatment (Fig. 6f); immunoblot
FLAG-tagged DHX9 = FLAG-tagged DHX9 (UniProt Q08211); experiment: co-IP; H1299 cells transfected with a FLAG-tagged DHX9 expression vector; immunoprecipitation with a FLAG-specific antibody; immunoblot for endogenous NPM1
[2] = target: DDX5 (p68) (human (endogenous in H1299 or A549)) (UniProt P17844); experiment: co-IP; endogenous proteins; cells lysed in RIPA buffer, pre-cleared lysates immunoprecipitated with the indicated antibodies 3 h at 4 °C, Protein G beads overnight, six washes (50 mM Tris-HCl pH 7.5, 150 mM NaCl, 1 mM MgCl2, 0.05% IGEPAL CA-630), immunoblot; reverse IP (Fig. 6d, 7c); Drosha/p21 in H1299 and A549
[3] = target: T1, Drosha (human (endogenous in H1299 and A549)) (UniProt Q9NRR4); experiment: as above
T1 sequence: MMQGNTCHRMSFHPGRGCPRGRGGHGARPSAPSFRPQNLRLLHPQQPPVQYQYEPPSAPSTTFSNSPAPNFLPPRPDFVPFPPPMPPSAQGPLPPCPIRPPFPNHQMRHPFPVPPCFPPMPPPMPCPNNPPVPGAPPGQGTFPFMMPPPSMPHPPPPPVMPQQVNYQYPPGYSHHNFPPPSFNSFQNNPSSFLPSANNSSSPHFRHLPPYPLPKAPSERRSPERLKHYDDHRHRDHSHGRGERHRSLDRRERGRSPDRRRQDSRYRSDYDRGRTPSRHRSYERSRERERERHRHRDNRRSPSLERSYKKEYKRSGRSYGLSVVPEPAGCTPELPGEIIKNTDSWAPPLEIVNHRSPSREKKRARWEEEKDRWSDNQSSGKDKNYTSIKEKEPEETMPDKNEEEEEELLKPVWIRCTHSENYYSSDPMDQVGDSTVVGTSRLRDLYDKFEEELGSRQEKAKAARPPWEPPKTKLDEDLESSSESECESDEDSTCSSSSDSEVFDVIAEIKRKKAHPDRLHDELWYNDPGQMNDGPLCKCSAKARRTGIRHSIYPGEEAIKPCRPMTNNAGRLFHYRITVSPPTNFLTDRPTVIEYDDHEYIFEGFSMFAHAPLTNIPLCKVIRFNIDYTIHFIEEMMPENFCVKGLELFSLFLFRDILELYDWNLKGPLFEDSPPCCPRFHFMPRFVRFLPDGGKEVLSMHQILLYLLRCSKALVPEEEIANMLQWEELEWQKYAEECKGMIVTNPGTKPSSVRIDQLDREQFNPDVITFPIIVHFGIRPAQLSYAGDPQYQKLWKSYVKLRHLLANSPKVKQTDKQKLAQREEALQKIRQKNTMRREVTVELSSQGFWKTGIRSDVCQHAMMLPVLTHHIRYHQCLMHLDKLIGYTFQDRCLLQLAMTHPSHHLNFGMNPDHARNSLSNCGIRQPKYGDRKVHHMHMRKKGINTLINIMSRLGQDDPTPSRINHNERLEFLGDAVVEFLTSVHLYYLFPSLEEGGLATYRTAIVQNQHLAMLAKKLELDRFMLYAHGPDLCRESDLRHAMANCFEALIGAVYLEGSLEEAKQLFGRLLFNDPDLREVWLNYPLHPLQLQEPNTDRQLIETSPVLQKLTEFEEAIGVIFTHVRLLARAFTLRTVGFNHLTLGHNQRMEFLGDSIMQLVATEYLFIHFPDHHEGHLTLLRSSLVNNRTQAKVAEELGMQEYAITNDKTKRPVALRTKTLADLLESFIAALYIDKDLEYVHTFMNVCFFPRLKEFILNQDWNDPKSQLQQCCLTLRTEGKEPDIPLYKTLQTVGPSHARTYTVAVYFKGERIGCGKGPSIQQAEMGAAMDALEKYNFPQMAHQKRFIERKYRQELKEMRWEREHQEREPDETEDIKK

Row | binding (FLAG-tagged DHX9) | binding [2] | binding [3] | Substance | binding [1]
1 | binds | binds |  | NPM1 (from UniProt P06748 1-294) | no binding (condition: with RNase A treatment)
2 |  |  | binds | p21 (CDKN1A) (from UniProt P38936 1-164) | 
